Measured values reported in patent US20220106381A1.
These are yes or no findings as the source states them, for the method shown. Some entries that bind do so weakly or less than the wild type.

Sequences of proteins named here, by UniProt entry; tags and fusion partners are left off. A change or cut given only in a name is not applied to a line headed by its entry.
UniProt P25942: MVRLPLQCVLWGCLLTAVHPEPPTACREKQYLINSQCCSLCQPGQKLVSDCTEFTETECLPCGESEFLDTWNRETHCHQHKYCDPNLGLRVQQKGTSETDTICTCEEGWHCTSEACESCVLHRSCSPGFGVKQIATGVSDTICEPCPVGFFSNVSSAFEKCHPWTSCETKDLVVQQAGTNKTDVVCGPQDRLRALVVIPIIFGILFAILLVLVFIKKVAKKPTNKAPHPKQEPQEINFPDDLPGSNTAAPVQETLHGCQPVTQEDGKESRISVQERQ

Legend:
[1] = target: CD40 on blood cells of type-I diabetic and non-diabetic (control) subjects (Homo sapiens (Human)) (UniProt P25942); test: whole blood incubated with biotin-conjugated peptide, HRP-avidin, absorbance at 405 nm
[2] = target: CD40 on blood cells of type-I diabetic and non-diabetic (control) subjects (Homo sapiens (Human)) (UniProt P25942); test: whole blood incubated with biotin-conjugated 15-mer peptide, HRP-avidin, absorbance at 405 nm; sheet title 'ELISA measuring CD40 in blood samples'

binding [1]: binds
binding [2]: binds
B1: biotin-conjugated 15-mer peptide from CD154 (peptide)
peptide: VLQWAKKGYYTMKSK
modifications: biotin-conjugated (position not given)
